From the supplement of paper PMC9744312 come the findings set out here.

Structures can show the parent of a compound that is named as a salt. The list shows a part of the results. This is a noisy data set. A value given as a limit tells only on which side of the number the result lay.

The assay relates to Peyronie's disease tunica albuginea primary fibroblasts. Nature of the assay: inhibition of TGF-beta1-induced alpha-SMA expression (myofibroblast transformation), relative to TGF-beta1-only and untreated controls; higher = stronger inhibition of myofibroblast transformation. The conditions noted are these: 10 µM; TGF-beta1 10 ng/mL; 72 h.
Take `Nc1ccc(C(=O)NCC(=O)O)cc1` [Sodium 4-aminohippurate Hydrate]: the “inhibition of TGF-beta1-induced alpha-SMA expression” value (shortened to “inhibition”) came to 23.4%.
The result for `COc1ccc(NS(=O)(=O)c2ccc(N)cc2)nn1` [Sulfamethoxypyridazine] reads 38.5%; that for `Nc1ccc(S(=O)(=O)c2ccc(N)cc2)cc1` [Dapson], 1.02%.
Under `CN(C)CCc1c[nH]c2ccc(Cn3cncn3)cc12` [Rizatriptan Benzoate] stands 0.863%.
Under `OCCN1CCN(CCCN2c3ccccc3Sc3ccc(Cl)cc32)CC1` [Perphenazine] stands 58.7%; under `N[C@H]1C(O)O[C@H](CO)[C@@H](O)[C@@H]1O` (stereo partly drawn) [Glucosamine hydrochloride], 19.8%; under `N[C@H]1C(O)O[C@H](CO)[C@@H](O)[C@@H]1O` (stereo partly drawn) [Glucosamine sulfate], 26%.
Take `N=C(N)NC(=N)N1CCOCC1` [Moroxydine HCl]: the “inhibition” value amounted to 20.4%.
Under `CC(=O)Oc1cccc2c1C(=O)c1c(OC(C)=O)cc(C(=O)O)cc1C2=O` [Diacerein] stands -0.395%.
Turning to `CN1CCCCC1CCN1c2ccccc2Sc2ccc([S+](C)[O-])cc21` (stereo not drawn) [Mesoridazine Besylate], the “inhibition” value stood at 48.6%.
In the case of `CC(C)C[C@H](NC(=O)[C@H](CCc1ccccc1)NC(=O)CN1CCOCC1)C(=O)N[C@@H](Cc1ccccc1)C(=O)N[C@@H](CC(C)C)C(=O)[C@@]1(C)CO1` [Carfilzomib (PR-171)], the “inhibition” value is > 100%.
Under `O=C(O[C@H]1CN2CCC1CC2)N1CCc2ccccc2[C@@H]1c1ccccc1` [Solifenacin] stands 43.5%.
Under `O=C(O[C@H]1CN2CCC1CC2)N1CCc2ccccc2[C@@H]1c1ccccc1` [Solifenacin succinate] stands 95.7%; under `NC(=O)N/N=C/c1ccc([N+](=O)[O-])o1` [Nitrofural], 10%.
Under `CN(C)CCC[C@@]1(c2ccc(F)cc2)OCc2cc(C#N)ccc21` [Escitalopram Oxalate] stands 18.5%; under `CCCC(=O)Nc1ncnc2c1ncn2[C@@H]1O[C@@H]2COP(=O)(O)O[C@H]2[C@H]1OC(=O)CCC` [Dibutyryl-cAMP (Bucladesine)], 15.4%; under `CN1CCCC(n2nc(Cc3ccc(Cl)cc3)c3ccccc3c2=O)CC1` (stereo not drawn) [Azelastine HCl], 57%.
On to `C=C=CCNC(=O)c1ccc(F)cc1` [Diastase], for which the “inhibition” value was -16.3%.
The result for `CCN1CCN(C(=O)N[C@@H](C(=O)N[C@@H]2C(=O)N3[C@@H]2SC(C)(C)[C@@H]3C(=O)O)c2ccccc2)C(=O)C1=O` [Piperacillin Sodium] reads 4.89%; that for `CO[C@@H]1[C@@H](OC(N)=O)[C@@H](O)[C@H](Oc2ccc3c(O)c(NC(=O)c4ccc(O)c(CC=C(C)C)c4)c(=O)oc3c2C)OC1(C)C` [Novobiocin Sodium], 23.1%; that for `CN(C)[C@@H]1C(O)=C(C(N)=O)C(=O)[C@@]2(O)C(O)=C3C(=O)c4c(O)ccc(Cl)c4[C@@H](O)[C@H]3C[C@@H]12` [Demeclocycline HCl], -9.39%.
As for `CCC1(c2c[nH]cn2)Cc2ccccc2C1` [Atipamezole], the “inhibition” value was determined as 6.42%.
The result for `CCC1(c2c[nH]cn2)Cc2ccccc2C1` [Atipamezole hydrochloride] reads 29.1%.
The result for `Cn1c([N+](=O)[O-])cnc1COC(N)=O` [Ronidazole] reads -0.85%; that for `CCN(c1cc(-c2ccc(CN3CCOCC3)cc2)cc(C(=O)NCc2c(C)cc(C)[nH]c2=O)c1C)C1CCOCC1` [Tazemetostat (EPZ-6438)], 31.5%; that for `COc1ccc(C(=O)NCc2ccc(OCCN(C)C)cc2)cc1OC` [Itopride hydrochloride], 18.7%.
Under `CCCCCCCCN=c1ccn(CCCCCCCCCCn2ccc(=NCCCCCCCC)cc2)cc1` [Octenidine Dihydrochloride] stands > 100%; under `N[C@@H](C(=O)N[C@@H]1C(=O)N2C(C(=O)O)=C(Cl)CS[C@H]12)c1ccccc1` [Cefaclor], -1.04%; under `CC[C@@H]1/C=C(\C)C[C@H](C)C[C@H](OC)[C@H]2O[C@@](O)(C(=O)C(=O)N3CCCC[C@H]3C(=O)O[C@H](/C(C)=C/[C@@H]3CC[C@H](Cl)[C@H](OC)C3)[C@H](C)[C@@H](O)CC1=O)[C@H](C)C[C@@H]2OC` [Pimecrolimus], 15.6%.
As to `OC[C@H]1O[C@@H](O[C@@H]2[C@@H](CO)OC(O)(CO)[C@H]2O)[C@H](O)[C@@H](O)[C@H]1O` (mixture of isomers) [Lactulose], the “inhibition” value is -4.68%.
Under `CCCCCCCCCC(=O)N[C@H]1[C@H](Oc2c3cc4cc2Oc2ccc(cc2Cl)[C@@H](O[C@@H]2O[C@H](CO)[C@@H](O)[C@H](O)[C@H]2NC(C)=O)[C@@H]2NC(=O)[C@H](NC(=O)[C@@H]4NC(=O)[C@H]4NC(=O)[C@@H](Cc5ccc(c(Cl)c5)O3)NC(=O)[C@H](N)c3ccc(O)c(c3)Oc3cc(O)cc4c3)c3ccc(O)c(c3)-c3c(OC4O[C@H](CO)[C@@H](O)[C@H](O)[C@@H]4O)cc(O)cc3[C@@H](C(=O)O)NC2=O)O[C@H](CO)[C@@H](O)[C@@H]1O` (stereo partly drawn) [Teicoplanin] stands 15.5%.
Take `C[C@H](Oc1cc(-c2cnn(C3CCNCC3)c2)cnc1N)c1c(Cl)ccc(F)c1Cl` [(S)-crizotinib]: the “inhibition” value is > 100%.
The result for `Brc1c(NC2=NCCN2)ccc2nccnc12` [Brimonidine Tartrate] reads -15.5%; that for `CN(C)CCOC(=O)COc1ccc(Cl)cc1` [Meclofenoxate (Centrophenoxine) HCl], 5.8%.
Under `O=C(OCc1ccccc1)c1ccccc1` [Benzyl benzoate] stands -0.889%; under `CCCc1nc(C(C)(C)O)c(C(=O)O)n1Cc1ccc(-c2ccccc2-c2nnn[nH]2)cc1` [Olmesartan], 17.2%.
Under `N=C(N)N/N=C/c1c(Cl)cccc1Cl` [Guanabenz Acetate] stands 41.8%; under `Cc1ccc2c(Cl)cc(Cl)c(O)c2n1` [Chlorquinaldol], -54.6%; under `OC(CCN1CCCCC1)(c1ccccc1)C1CCCCC1` (stereo not drawn) [Trihexyphenidyl hydrochloride], 19.6%.
On to `CN(CCOc1ccc(CC2SC(=O)NC2=O)cc1)c1ccccn1` (stereo not drawn) [Rosiglitazone HCl], for which the “inhibition” value is -31.8%.
Under `CN(CCOc1ccc(CC2SC(=O)NC2=O)cc1)c1ccccn1` (stereo not drawn) [Rosiglitazone] stands 7.83%; under `CN(CCOc1ccc(CC2SC(=O)NC2=O)cc1)c1ccccn1` (stereo not drawn) [Rosiglitazone maleate], 39.5%; under `C=C[C@@H]1C[C@]1(NC(=O)[C@@H]1C[C@@H](Oc2ncc(OC)c3ccc(Cl)cc23)CN1C(=O)[C@@H](NC(=O)OC(C)(C)C)C(C)(C)C)C(=O)NS(=O)(=O)C1CC1` [Asunaprevir], 1.94%.
Take `COc1ccc(C[C@@H]2c3cc(OC)c(OC)cc3CC[N@+]2(C)CCC(=O)OCCCCCOC(=O)CC[N@@+]2(C)CCc3cc(OC)c(OC)cc3[C@H]2Cc2ccc(OC)c(OC)c2)cc1OC` [Cisatracurium Besylate]: the “inhibition” value amounted to 18.9%.
On to `CCOC(=O)c1c(C)n(C)c2ccc(O)cc12` [Mecarbinate], for which the “inhibition” value was 34.1%.
For the molecule `N#Cc1ccc(Oc2ccc3c(c2)COB3O)cc1` [Crisaborole (AN2728)], the “inhibition” value amounted to 32.7%.
Under `CC(N)C12CC3CC(CC(C3)C1)C2` (stereo not drawn) [Rimantadine] stands 12.8%; under `CC(N)C12CC3CC(CC(C3)C1)C2` (stereo not drawn) [Rimantadine Hydrochloride], 16%.
Under `O=C(NS(=O)(=O)c1ccc(Br)s1)c1ccc(Cl)cc1Cl` [Tasisulam] stands 2.01%; under `OCCOCCN1CCN(C(c2ccccc2)c2ccc(Cl)cc2)CC1` (stereo not drawn) [Hydroxyzine pamoate], 86.7%; under `OCCOCCN1CCN(C(c2ccccc2)c2ccc(Cl)cc2)CC1` (stereo not drawn) [Hydroxyzine 2HCl], 59.6%.
Consider `C=CC1=C(C(=O)O)N2C(=O)[C@@H](NC(=O)/C(=N\OCC(=O)O)c3csc(N)n3)[C@H]2SC1` [Cefixime], for which the “inhibition” value was -40.6%.
Regarding `Cc1cc(-n2c(=O)[nH]c(=O)n(C)c2=O)ccc1Oc1ccc(SC(F)(F)F)cc1` [Toltrazuril], the “inhibition” value is -3.27%.
Under `Cc1ccccc1N1C(=O)c2cc(S(N)(=O)=O)c(Cl)cc2NC1C` (stereo not drawn) [Metolazone] stands -2.08%.
On to `[I-].[K+]` [Potassium Iodide], for which the “inhibition” value is -2.66%.
Turning to `COc1ccc2[nH]c([S+]([O-])Cc3ncc(C)c(OC)c3C)nc2c1` (stereo not drawn) [Omeprazole], the “inhibition” value stood at 14%.
The result for `O=C1/C(=C2\Nc3ccccc3C2=O)Nc2ccccc21` [Indigo] reads 28.6%; that for `Nc1cccc2c1CN(C1CCC(=O)NC1=O)C2=O` (stereo not drawn) [Lenalidomide (CC-5013)], -0.869%; that for `O=S(=O)(O)CCCS(=O)(=O)O` [Eprodisate disodium], 7.9%.
The result for `CCOC(=O)[C@H](CCc1ccccc1)N[C@@H](C)C(=O)N1CCC[C@H]1C(=O)O` [Enalapril Maleate] reads 7.21%; that for `CNC(=O)[C@H](Cc1ccccc1)NC(=O)[C@H](CC(C)C)[C@H](CSc1cccs1)C(=O)NO` [Batimastat (BB-94)], 26.3%; that for `Cn1nnnc1SCC1=C(C(=O)O)N2C(=O)[C@@H](NC(=O)[C@H](OC=O)c3ccccc3)[C@H]2SC1` [Cefamandole nafate], 14.3%.
Under `C[C@H](NC(=O)[C@@H](Cc1ccc2ccccc2c1)NC(=O)[C@@H](C)N)C(=O)N[C@@H](Cc1c[nH]c2ccccc12)C(=O)N[C@H](Cc1ccccc1)C(=O)N[C@@H](CCCCN)C(N)=O` stands 8.35%.
`C=CC(=O)N1CCC[C@@H](n2nc(-c3ccc(Oc4ccccc4)cc3)c3c(N)ncnc32)C1`: the “inhibition” value is -34.2%.
The result for `COc1cc2c(cc1OC)[C@H]1C[C@@H](OC(=O)[C@@H](N)C(C)C)[C@H](CC(C)C)CN1CC2` [Valbenazine tosylate] reads 25%; that for `CC1=C(CC(=O)O)c2cc(F)ccc2/C1=C\c1ccc([S+](C)[O-])cc1` (stereo not drawn) [Sulindac], 14.3%.
Under `C[C@]12CC[C@@H]3c4ccc(O)cc4CC[C@H]3[C@@H]1C[C@@H](O)[C@@H]2O` [Estriol] stands 22.3%; under `Cc1noc(NS(=O)(=O)c2ccc(N)cc2)c1C` [Sulfisoxazole], 19.1%.
